Experimental findings from paper PMC5599542 are described below.

Amino acid sequences for entries named in this document (tags omitted).
UniProt P62993: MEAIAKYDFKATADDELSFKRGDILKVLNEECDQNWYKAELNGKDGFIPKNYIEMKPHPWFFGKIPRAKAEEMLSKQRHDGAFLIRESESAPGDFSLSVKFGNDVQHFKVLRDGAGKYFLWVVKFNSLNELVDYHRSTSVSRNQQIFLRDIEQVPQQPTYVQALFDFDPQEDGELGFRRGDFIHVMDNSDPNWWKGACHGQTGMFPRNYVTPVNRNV
UniProt Q12774: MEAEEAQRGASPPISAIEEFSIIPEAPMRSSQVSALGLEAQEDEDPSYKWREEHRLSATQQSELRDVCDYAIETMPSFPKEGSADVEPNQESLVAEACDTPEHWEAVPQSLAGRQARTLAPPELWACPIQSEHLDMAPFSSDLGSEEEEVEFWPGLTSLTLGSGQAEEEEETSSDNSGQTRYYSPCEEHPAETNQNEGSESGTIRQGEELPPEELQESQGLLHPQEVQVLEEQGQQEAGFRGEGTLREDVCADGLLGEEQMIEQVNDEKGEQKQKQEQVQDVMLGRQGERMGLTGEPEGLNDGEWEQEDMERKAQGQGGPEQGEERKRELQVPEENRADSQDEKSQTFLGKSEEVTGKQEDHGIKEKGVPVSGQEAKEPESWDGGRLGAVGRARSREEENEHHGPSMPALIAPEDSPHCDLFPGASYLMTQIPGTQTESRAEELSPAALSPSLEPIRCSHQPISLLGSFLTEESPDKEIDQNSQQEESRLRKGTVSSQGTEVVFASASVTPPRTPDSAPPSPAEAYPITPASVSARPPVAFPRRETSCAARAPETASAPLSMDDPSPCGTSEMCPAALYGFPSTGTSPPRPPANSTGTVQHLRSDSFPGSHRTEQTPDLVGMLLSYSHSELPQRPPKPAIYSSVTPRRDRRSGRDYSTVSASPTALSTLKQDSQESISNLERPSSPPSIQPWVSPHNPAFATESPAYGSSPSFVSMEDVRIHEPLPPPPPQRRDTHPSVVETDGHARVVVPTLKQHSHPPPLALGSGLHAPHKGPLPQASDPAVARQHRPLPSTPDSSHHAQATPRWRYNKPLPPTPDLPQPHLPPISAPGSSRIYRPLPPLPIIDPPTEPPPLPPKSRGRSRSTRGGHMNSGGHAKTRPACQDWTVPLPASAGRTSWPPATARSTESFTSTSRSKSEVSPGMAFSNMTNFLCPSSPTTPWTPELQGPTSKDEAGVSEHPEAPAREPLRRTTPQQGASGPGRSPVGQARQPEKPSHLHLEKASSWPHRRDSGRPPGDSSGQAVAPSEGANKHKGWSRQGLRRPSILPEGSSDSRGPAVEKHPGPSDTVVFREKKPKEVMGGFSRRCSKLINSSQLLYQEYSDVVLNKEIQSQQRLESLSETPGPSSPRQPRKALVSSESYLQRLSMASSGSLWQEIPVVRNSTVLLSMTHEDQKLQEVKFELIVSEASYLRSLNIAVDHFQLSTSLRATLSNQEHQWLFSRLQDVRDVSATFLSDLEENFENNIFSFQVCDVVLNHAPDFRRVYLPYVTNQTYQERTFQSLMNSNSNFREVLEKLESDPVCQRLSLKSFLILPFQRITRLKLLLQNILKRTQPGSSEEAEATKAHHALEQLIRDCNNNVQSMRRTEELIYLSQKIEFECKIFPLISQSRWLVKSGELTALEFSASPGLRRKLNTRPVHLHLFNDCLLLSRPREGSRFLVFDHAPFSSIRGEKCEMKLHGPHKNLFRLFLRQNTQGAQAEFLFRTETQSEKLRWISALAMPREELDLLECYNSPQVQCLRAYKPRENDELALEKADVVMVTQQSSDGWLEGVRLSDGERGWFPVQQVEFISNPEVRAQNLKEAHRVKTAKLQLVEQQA
UniProt A5YM69: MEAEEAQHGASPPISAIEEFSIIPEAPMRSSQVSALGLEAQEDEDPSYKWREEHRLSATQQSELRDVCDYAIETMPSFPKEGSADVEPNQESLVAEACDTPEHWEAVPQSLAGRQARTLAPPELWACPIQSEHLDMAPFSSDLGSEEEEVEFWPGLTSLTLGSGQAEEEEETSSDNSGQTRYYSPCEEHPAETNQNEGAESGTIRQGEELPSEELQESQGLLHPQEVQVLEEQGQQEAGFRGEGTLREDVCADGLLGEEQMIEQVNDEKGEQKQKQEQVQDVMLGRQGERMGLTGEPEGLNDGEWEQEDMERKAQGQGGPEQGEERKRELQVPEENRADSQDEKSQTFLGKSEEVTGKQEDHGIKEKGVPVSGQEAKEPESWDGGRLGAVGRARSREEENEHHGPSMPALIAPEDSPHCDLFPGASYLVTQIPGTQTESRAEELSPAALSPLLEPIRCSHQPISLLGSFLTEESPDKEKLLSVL

This assay concerns the target 3xFLAG-GRB2 (Growth factor Receptor-Bound protein 2), stably expressed in HCC1954 cells (human) (UniProt P62993). The assay can be described thus: affinity purification with mass spectrometry; 3xFLAG-GRB2 purified on M2 anti-FLAG resin (1h30, 4 °C) from lysates of stable HCC1954 cells treated or not with pervanadate (PV); biological triplicates; SAINT score above 0.9 against 3xFLAG-GFP controls.

No constants are given. Whether binding was seen depends on the method and setting. Binding seen in cells or lysates may run through a third protein. A yes stands for co-enrichment or nearness to the bait. Other partners may have been found.

For “ARHGEF5, endogenous in HCC1954 cells (from UniProt Q12774 1-1597)”, the binding result is “binds”.

With “ARHGEF35 (ARHGEF5-like), endogenous in HCC1954 cells (from UniProt A5YM69 1-484)”, the binding result is recorded as “binds”.

B1: STAP2 adaptor protein, endogenous in HCC1954 cells (protein, UniProt Q9UGK3 1-403)
chain: MASALRPPRVPKPKGVLPSHYYESFLEKKGPCDRDYKKFWAGLQGLTIYFYNSNRDFQHVEKLNLGAFEKLTDEIPWGSSRDPGTHFSLILRDQEIKFKVETLECREMWKGFILTVVELRVPTDLTLLPGHLYMMSEVLAKEEARRALETPSCFLKVSRLEAQLLLERYPECGNLLLRPSGDGADGVSVTTRQMHNGTHVVRHYKVKREGPKYVIDVEQPFSCTSLDAVVNYFVSHTKKALVPFLLDEDYEKVLGYVEADKENGENVWVAPSAPGPGPAPCTGGPKPLSPASSQDKLPPLPPLPNQEENYVTPIGDGPAVDYENQDVASSSWPVILKPKKLPKPPAKLPKPPVGPKPEPKVFNGGLGRKLPVSSAQPLFPTAGLADMTAELQKKLEKRRALEH
Turning to B1, the binding result is given as “binds”.
